{"source": "PubChem BioAssay AID493014", "about": "(National Center for Advancing Translational Sciences (NCATS), 2011)", "test": "qHTS Assay to Find Inhibitors of Chronic Active B-Cell Receptor Signaling", "conditions": "ABC-DLBCL IkBa-CBG/CBR reporter, luminescence ratio (green luciferase fused to IkBa over red control in TMD8 lymphoma cells), 4 h", "in_short": "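TMD8 ABC-DLBCL cells carrying doxycycline-inducible green luciferase fused to IkappaBalpha plus unfused red luciferase were exposed to compounds (up to 46 uM) for 4 hrs at 37C. Activity came from the overlap-corrected green/red luminescence ratio.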", "key": {"[1]": {"conditions": "measured here: CBR red luminescence, cell number"}, "[2]": {"conditions": "measured here: IkBa-CBG green luminescence"}}, "note": "The other results are listed elsewhere or left out. Shown are side measurements of this screen, not its main read-out; they come without a call. Compounds called inactive in the main read-out are mostly missing here. Words in brackets tell the shape of the fitted curve; partial curves, single points and poor fits give uncertain potencies.", "data": [{"smiles": "Nc1cc(=O)[nH]c(SCC(=O)NNC(=O)c2ccccc2)n1", "values": [{"measurement": "AC50", "setting": "[1]", "result": "5.8 µM [falling, partial curve]"}]}, {"smiles": "COc1ccc(N/C=C/C(=O)c2sc(-c3ccccc3)nc2C)cc1", "values": [{"measurement": "AC50", "setting": "[1]", "result": "0.501 µM [rising, full curve, poor fit]"}]}, {"smiles": "CC(C)C(=O)Nc1c(-c2ccc(Cl)cc2)c(=O)c2ccccc2n1C", "values": [{"measurement": "AC50", "setting": "[1]", "result": "35.5 µM [rising, single point]"}]}, {"smiles": "CC(C)(C)OC(=O)N[C@@H](Cc1ccccc1)c1nnc(S(=O)(=O)Cc2ccccc2)o1", "values": [{"measurement": "AC50", "setting": "[1]", "result": "7.94 µM [falling, partial curve]"}]}, {"smiles": "COc1ccc(OC)c(Nc2nc(-c3sc(NC(=O)CC(C)C)nc3C)cs2)c1", "values": [{"measurement": "AC50", "setting": "[1]", "result": "3.16 µM [falling, single point]"}]}, {"smiles": "COc1ccccc1-c1cc(N)n(S(=O)(=O)c2ccc(F)c(C)c2)n1", "values": [{"measurement": "AC50", "setting": "[1]", "result": "8.2 µM [falling, partial curve]"}]}, {"smiles": "COc1ccc(NC(=O)Nc2c[nH]c(=O)[nH]c2=O)cc1", "values": [{"measurement": "AC50", "setting": "[1]", "result": "8.91 µM [rising, partial curve, poor fit]"}]}, {"smiles": "Cc1c(Cl)ccc2c1NC(=O)[C@]21[C@@H]2C(=O)N(Cc3ccccc3)C(=O)[C@@H]2[C@@H]2CCCN21", "values": [{"measurement": "AC50", "setting": "[1]", "result": "12.6 µM [falling, partial curve]"}]}, {"smiles": "COc1ccc(-c2nc(C#N)c(N3CCCCCC3)o2)cc1", "values": [{"measurement": "AC50", "setting": "[1]", "result": "3.66 µM [rising, full curve, poor fit]"}]}, {"smiles": "Cc1ccnc(NC(=O)c2cccc(S(=O)(=O)N3CCCc4ccccc43)c2)c1", "values": [{"measurement": "AC50", "setting": "[1]", "result": "29.1 µM [falling, single point]"}]}, {"smiles": "C=CCOc1ccc(C=NNc2ccc(S(=O)(=O)Nc3ccccc3C(=O)O)cc2[N+](=O)[O-])cc1OC", "values": [{"measurement": "AC50", "setting": "[1]", "result": "29.1 µM [rising, single point]"}]}, {"smiles": "NS(=O)(=O)c1ccc(CCNC(=O)CSc2ccc([N+](=O)[O-])cc2)cc1", "values": [{"measurement": "AC50", "setting": "[1]", "result": "35.5 µM [rising, partial curve, poor fit]"}]}, {"smiles": "Cc1c(NC(=O)COC(=O)Cc2ccc(Cl)cc2)c(=O)n(-c2ccccc2)n1C", "values": [{"measurement": "AC50", "setting": "[1]", "result": "0.562 µM [falling, partial curve, poor fit]"}]}, {"smiles": "CCN1C(=O)c2cccc3c(NC(=O)C(C)(C)C)ccc1c23", "values": [{"measurement": "AC50", "setting": "[1]", "result": "29.1 µM [falling, single point]"}]}, {"smiles": "Cc1nnc(Sc2nc3c(c(=O)[nH]c(=O)n3C)n2CCCc2ccccc2)s1", "values": [{"measurement": "AC50", "setting": "[1]", "result": "14.6 µM [falling, partial curve]"}]}, {"smiles": "COc1ccc(/C=N/NC(=O)c2nn(-c3ccc(C)c(C)c3)c(=O)c3ccccc23)cc1", "values": [{"measurement": "AC50", "setting": "[1]", "result": "3.66 µM [rising, partial curve]"}]}, {"smiles": "N#Cc1cccc(Nc2ncnc3c2cnn3-c2cccc(Cl)c2)c1", "values": [{"measurement": "AC50", "setting": "[1]", "result": "2.51 µM [rising, partial curve, poor fit]"}]}, {"smiles": "CC(C)NC(=O)c1cc(-c2ccc(Br)cc2)on1", "values": [{"measurement": "AC50", "setting": "[1]", "result": "2.82 µM [falling, full curve]"}]}, {"smiles": "O=C1c2cccc3cccc(c23)C(=O)N1CC1CCN(CC(O)COc2ccc3ccccc3c2)CC1", "note": "(stereo unspecified)", "values": [{"measurement": "AC50", "setting": "[1]", "result": "12.6 µM [falling, partial curve]"}]}, {"smiles": "COc1cc2c(cc1OC)CN(C(=O)CN1C(=O)NC3(CCCCC3C)C1=O)CC2", "note": "(stereo unspecified)", "values": [{"measurement": "AC50", "setting": "[1]", "result": "0.00411 µM [rising, full curve, poor fit]"}]}, {"smiles": "CC1CCN(c2c(NCC3CCC(C(=O)NCCCc4ccccc4)CC3)c(=O)c2=O)CC1", "note": "(stereo unspecified)", "values": [{"measurement": "AC50", "setting": "[1]", "result": "15.8 µM [rising, single point]"}]}, {"smiles": "CCOC(=O)c1sc(NC(=O)C2CC(=O)N(c3ccc(OCC)cc3)C2)nc1C", "note": "(stereo unspecified)", "values": [{"measurement": "AC50", "setting": "[1]", "result": "0.562 µM [falling, full curve, poor fit]"}]}, {"smiles": "O=C(NC(=S)NC1CCCCC1)c1ccccc1[N+](=O)[O-]", "values": [{"measurement": "AC50", "setting": "[1]", "result": "7.94 µM [falling, partial curve, poor fit]"}]}, {"smiles": "CCC1=Nc2cc(C(=O)NCc3ccccc3Cl)ccc2Sc2ccc(C)cc21", "values": [{"measurement": "AC50", "setting": "[1]", "result": "3.98 µM [rising, full curve, poor fit]"}, {"measurement": "AC50", "setting": "[2]", "result": "7.08 µM [falling, partial curve]"}]}, {"smiles": "Nc1c(C(=O)NCCN2CCOCC2)c2nc3ccccc3nc2n1-c1ccc2c(c1)OCO2", "values": [{"measurement": "AC50", "setting": "[1]", "result": "0.731 µM [falling, partial curve, poor fit]"}]}, {"smiles": "Cc1ccc(C)c(-n2c(SCC(=O)O)nc3sc4c(c3c2=O)CCCC4)c1", "values": [{"measurement": "AC50", "setting": "[1]", "result": "35.5 µM [falling, single point]"}]}, {"smiles": "COc1ccc(OC)c(NC(=O)CSc2nc3n[nH]c(C)c3c(=N)n2-c2cccc(Cl)c2C)c1", "values": [{"measurement": "AC50", "setting": "[1]", "result": "35.5 µM [falling, single point]"}]}, {"smiles": "CN1CCN(CC(O)(c2ccc(Cl)cc2)c2ccc(Cl)cc2)CC1", "values": [{"measurement": "AC50", "setting": "[1]", "result": "35.5 µM [falling, single point]"}]}, {"smiles": "NC(=O)c1c(NC(=O)c2ccccc2C(=O)O)sc2c1CCCC2", "values": [{"measurement": "AC50", "setting": "[1]", "result": "35.5 µM [falling, single point]"}]}, {"smiles": "CC1(C)Cc2ccccc2C(/C(=N\\Nc2cccc(Cl)c2)C(N)=O)=N1", "values": [{"measurement": "AC50", "setting": "[1]", "result": "14.6 µM [falling, partial curve, poor fit]"}, {"measurement": "AC50", "setting": "[2]", "result": "5.17 µM [rising, full curve, poor fit]"}]}, {"smiles": "OC1(c2ccccc2F)CCN(Cc2nnc(-c3ccccc3)o2)CC1", "values": [{"measurement": "AC50", "setting": "[1]", "result": "2.82 µM [rising, partial curve, poor fit]"}]}, {"smiles": "COc1ccc(S(=O)(=O)N2CCC(n3cnc4cc(C(F)(F)F)ccc43)CC2)cc1", "values": [{"measurement": "AC50", "setting": "[1]", "result": "35.5 µM [falling, single point]"}]}, {"smiles": "CC1=NOC(=O)/C1=C\\c1ccc(-c2ccc(Br)cc2)o1", "values": [{"measurement": "AC50", "setting": "[1]", "result": "35.5 µM [rising, single point]"}]}, {"smiles": "O=S1(=O)C=C(Sc2nc3ccccc3s2)c2ccccc21", "values": [{"measurement": "AC50", "setting": "[1]", "result": "6.51 µM [falling, partial curve, poor fit]"}, {"measurement": "AC50", "setting": "[2]", "result": "10.3 µM [rising, partial curve, poor fit]"}]}, {"smiles": "CC1(CC(=O)N/N=C/c2ccc(OCc3ccc(Cl)cc3Cl)cc2)OCCCO1", "values": [{"measurement": "AC50", "setting": "[1]", "result": "1.41 µM [falling, full curve, poor fit]"}]}, {"smiles": "CCN(CC)c1ccc(NC(=O)c2cc3c(OC)cccc3[nH]2)cc1", "values": [{"measurement": "AC50", "setting": "[1]", "result": "0.891 µM [falling, full curve]"}]}, {"smiles": "Cc1ccc(NC(=O)[C@H](NC(=O)[C@@H]2Cc3ccccc3CN2)c2ccccc2)c(C)c1", "values": [{"measurement": "AC50", "setting": "[1]", "result": "31.6 µM [falling, single point]"}]}, {"smiles": "COc1ccc(CCNC(=O)c2cc3sc(Cl)cc3n2C)cc1OC", "values": [{"measurement": "AC50", "setting": "[1]", "result": "2.06 µM [rising, full curve, poor fit]"}]}]}
